Where “and” joins values, the source holds several entries; their conditions need not be identical. Equal entries are not always repeated. Where two headings read alike, the source gives them in different places. Structures were worked out from names or drawings and are uncertain. Blank lines part the entries; values can stand above or below the compound they belong to.
Columns and labels:
[1] = target: UBA3 variant with A171T mutation (NAE) (Homo sapiens, UniProt Q8TBC4, A171T); assay: NAE HTRF assay, IC50 at KM for ATP (120 μM); conditions: for IC50: read-out: NAE Mutant A171T IC50, UBA3 A171T mutant, HTRF assay at KM for ATP, 120 μM; for A171T/WT: ratio of IC50 A171T mutant to IC50 wild type
[2] = target: wild type UBA3 (NAE) (Homo sapiens, UniProt Q8TBC4); assay: NAE HTRF assay, IC50 at KM for ATP (20 μM); conditions: read-out: NAE WT IC50

Sequences of proteins named here, by UniProt entry; tags and fusion partners are left off. A change or cut given only in a name is not applied to a line headed by its entry. Residues count along the entry.
UniProt Q8TBC4, whole entry A171T: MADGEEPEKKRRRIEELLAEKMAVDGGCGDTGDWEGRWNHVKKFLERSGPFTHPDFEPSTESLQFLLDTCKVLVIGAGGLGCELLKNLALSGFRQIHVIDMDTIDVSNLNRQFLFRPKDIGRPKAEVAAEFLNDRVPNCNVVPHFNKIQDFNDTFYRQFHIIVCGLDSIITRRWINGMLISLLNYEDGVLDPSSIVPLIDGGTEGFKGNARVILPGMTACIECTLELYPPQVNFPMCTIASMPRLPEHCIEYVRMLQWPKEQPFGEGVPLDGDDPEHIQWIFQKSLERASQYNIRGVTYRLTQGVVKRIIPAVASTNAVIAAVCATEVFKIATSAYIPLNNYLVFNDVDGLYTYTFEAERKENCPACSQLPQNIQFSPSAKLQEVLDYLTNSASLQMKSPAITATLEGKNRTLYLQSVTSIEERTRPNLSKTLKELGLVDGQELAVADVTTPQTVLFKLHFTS
UniProt Q8TBC4, whole entry: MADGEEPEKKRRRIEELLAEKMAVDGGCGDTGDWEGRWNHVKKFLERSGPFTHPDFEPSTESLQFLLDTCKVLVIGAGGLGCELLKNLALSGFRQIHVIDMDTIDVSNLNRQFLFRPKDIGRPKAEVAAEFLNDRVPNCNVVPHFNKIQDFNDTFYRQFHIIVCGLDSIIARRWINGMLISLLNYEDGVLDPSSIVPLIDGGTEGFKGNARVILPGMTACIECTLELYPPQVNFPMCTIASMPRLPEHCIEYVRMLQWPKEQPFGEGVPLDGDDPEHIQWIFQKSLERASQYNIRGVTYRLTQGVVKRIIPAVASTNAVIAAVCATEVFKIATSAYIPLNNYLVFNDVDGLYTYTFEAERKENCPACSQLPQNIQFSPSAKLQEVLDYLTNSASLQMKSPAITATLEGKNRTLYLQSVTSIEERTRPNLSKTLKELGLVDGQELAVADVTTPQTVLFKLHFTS
UniProt Q13564, whole entry partner: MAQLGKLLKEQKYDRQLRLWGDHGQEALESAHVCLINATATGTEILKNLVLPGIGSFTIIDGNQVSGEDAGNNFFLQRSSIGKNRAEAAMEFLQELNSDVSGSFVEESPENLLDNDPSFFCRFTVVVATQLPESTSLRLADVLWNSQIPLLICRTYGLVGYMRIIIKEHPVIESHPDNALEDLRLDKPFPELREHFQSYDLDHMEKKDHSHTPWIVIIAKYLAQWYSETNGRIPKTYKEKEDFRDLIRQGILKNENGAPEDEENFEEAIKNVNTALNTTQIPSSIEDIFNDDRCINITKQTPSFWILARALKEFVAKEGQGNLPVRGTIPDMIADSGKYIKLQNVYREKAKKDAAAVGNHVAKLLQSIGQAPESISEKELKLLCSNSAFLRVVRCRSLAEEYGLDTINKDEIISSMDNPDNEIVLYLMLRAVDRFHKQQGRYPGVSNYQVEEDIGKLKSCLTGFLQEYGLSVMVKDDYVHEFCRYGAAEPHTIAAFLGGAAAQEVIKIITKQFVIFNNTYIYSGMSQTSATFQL
UniProt Q15843, 1-76 partner limits assumed: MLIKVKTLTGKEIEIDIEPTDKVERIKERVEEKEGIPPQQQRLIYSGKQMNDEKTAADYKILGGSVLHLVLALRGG

SMILES: CC1(C)C[C@H](Nc2ncnc3c2ccn3[C@@H]2C[C@@H](COS(N)(=O)=O)[C@@H](O)C2)c2ccc(Cl)cc21
IC50 [1]: 230 nM and 440 nM

SMILES: COC1Cc2ccccc2C1Nc1cc(NC2CC(O)C(COS(N)(=O)=O)C2)ncn1 (stereo not shown)
IC50 [2]: 2.5 nM and 2.2 nM | A171T/WT ([1]; PCT publication WO 2006/): 18 | A171T/WT ([1]; PCT publication WO 2008/): 56

SMILES: NS(=O)(=O)OC[C@H]1O[C@@H](n2cnc3c(NCc4ccc5c(c4)OCO5)ncnc32)[C@H](O)[C@@H]1O
A171T/WT ([1]; PCT publication WO 2006/): 87 | A171T/WT ([1]; PCT publication WO 2007/): 25 | IC50 [1]: 260 nM and 200 nM

SMILES: NS(=O)(=O)OC[C@H]1O[C@@H](n2cnc3c(NCc4ccc(F)cc4)ncnc32)[C@H](O)[C@@H]1O
IC50 ([1]; PCT publication WO 2006/): 160 nM | IC50 ([1]; PCT publication WO 2007/): 55 nM

SMILES: CC(=O)Nc1ncnc2c1ccn2C1CC(O)C(COS(N)(=O)=O)C1 (stereo not shown)
A171T/WT ([1]; PCT publication WO 2007/): 3 | A171T/WT ([1]; PCT publication WO 2008/): 30 | IC50 [1]: 340 nM and 210 nM

Now from value to compound:

A171T/WT [1]: 22 and 44 | IC50 ([1]; PCT publication WO 2006/): 12 nM | IC50 ([1]; PCT publication WO 2007/): 200 nM | IC50 ([1]; PCT publication WO 2008/): 280 nM
SMILES: NS(=O)(=O)OC[C@H]1O[C@@H](n2cnc3c(N[C@H]4CCc5ccccc54)ncnc32)[C@H](O)[C@@H]1O

IC50 [2]: 11 nM and 12 nM
SMILES: NS(=O)(=O)OC[C@H]1O[C@@H](n2cnc3c(N[C@@H](CO)c4ccccc4)ncnc32)[C@H](O)[C@@H]1O

A171T/WT ([1]; PCT publication WO 2006/, phenylethynyl purin-9-yl compound): 56 | A171T/WT ([1]; PCT publication WO 2008/, inden-1-ylamino pyrimidin-4-yl compound): 1204 | IC50 ([1]; PCT publication WO 2006/, Example number I-5): 18 nM | IC50 ([1]; PCT publication WO 2008/, Example number I-5): 5900 nM
SMILES: NS(=O)(=O)OC[C@H]1O[C@@H](n2cnc3c(C#Cc4ccccc4)ncnc32)[C@H](O)[C@@H]1O

A171T/WT [1]: 3
SMILES: NS(=O)(=O)OC[C@H]1O[C@@H](n2cnc3c(N[C@@H]4c5ccccc5C[C@@H]4O)ncnc32)[C@H](O)[C@@H]1O

Reference: patent publication US20170107579A1, “E1 ENZYME MUTANTS AND USES THEREOF” (Millennium Pharmaceuticals, Inc., priority 2011, published 2017)
